# From patent US9861568B2, “Composition for improving skin conditions, containing chlorophyll a or pheophorbide a” (GWANGJU INSTITUTE OF SCIENCE AND TECHNOLOGY, priority 2014, dated 2018)
# Test system: hDF cells
# Experiment: Confocal microscopy of intracellular uptake in hDF cells
# Format: cell-based, human
# Settings: 2 hours
substance,measurement,setting,value
pheophorbide a,cell uptake,10 μM compared to 20 μM and 50 μM,cell uptake did not occur well
same,intracellular location by confocal microscope,,located in cytoplasm in proportion to its concentration
